Data published in the supplement of paper PMC7830784.
Where a name gives a salt, the structure may show the parent alone. Some of the results follow. Repeats in this data set agree poorly, so a single value says little.

Test system: Brugia pahangi adult female
Assay: motility inhibition on day 3 relative to DMSO vehicle; higher = more active
Settings: 10 µM; 3 days

SMILES | motility inhibition on day 3
Nc1nc(Cl)nc2c1ncn2[C@@H]1O[C@H](CO)[C@@H](O)[C@@H]1F [clofarabine] | 13.6%
Nc1nc(Cl)nc2c1ncn2[C@@H]1O[C@H](CO)[C@@H](O)[C@@H]1F [Clofarabine] | < 0%
CC(C)(C)NC[C@H](O)COc1nsnc1N1CCOCC1 [timolol maleate] | 22.2%
CC(C)(C)NC[C@H](O)COc1nsnc1N1CCOCC1 [S(-)-Timolol maleate] | 9.16%
C[C@]12CCC(=O)C=C1CC[C@@H]1[C@@H]2[C@@H](O)C[C@@]2(C)[C@H]1CC[C@]2(O)C(=O)COC(=O)CCC(=O)O [hydrocortisone hemisuccinate] | 31.9%
O=C(Nc1cccc2c(=O)cc(-c3nnn[nH]3)oc12)c1ccc(OCCCCc2ccccc2)cc1 [Pranlukast] | < 0%
NCCCC[C@H](N[C@@H](CCc1ccccc1)C(=O)O)C(=O)N1CCC[C@H]1C(=O)O [lisinopril] | 23.4%
CO/N=C(\C(=O)N[C@@H]1C(=O)N2C(C(=O)O)=C(CSc3nc(=O)c(O)nn3C)CS[C@H]12)c1csc(N)n1 [Ceftriaxone Disodium Salt Hemiheptahydrate] | 22.9%
CO/N=C(\C(=O)N[C@@H]1C(=O)N2C(C(=O)O)=C(CSc3nc(=O)c(O)nn3C)CS[C@H]12)c1csc(N)n1 [ceftriaxone sodium trihydrate] | 5.82%
CCOC(=O)OC(C)OC(=O)[C@@H]1N2C(=O)[C@@H](NC(=O)[C@H](N)c3ccccc3)[C@H]2SC1(C)C (stereo not given in full) [bacampicillin hydrochloride] | 11.4%
COC1=C(OC)C(=O)C(CCCCCCCCCCO)=C(C)C1=O [idebenone] | 13.6%
CCOC(=O)[C@H](CCc1ccccc1)N[C@H]1CCc2ccccc2N(CC(=O)O)C1=O [benazepril hydrochloride] | < 0%
Cc1cc(=O)oc2cc(O)ccc12 [hymechrome] | < 0%
Cc1nc2ccccc2n1Cc1ccc(Cl)cc1 [chlormidazole] | 66.6%
O=C(NCc1ccccc1)OCCO [buramate] | 10.1%
CCCN[C@H]1CCc2nc(N)sc2C1 [Pramipexole] | 5.4%
CCOc1ccc(/C=C2\NCCc3cc(OCC)c(OCC)cc32)cc1OCC [Drotaverine] | < 0%
CC(=O)c1ccc(S(=O)(=O)NC(=O)NC2CCCCC2)cc1 [Acetohexamide] | 16.1%
CCCCC[C@H](O)/C=C/[C@@H]1[C@@H](C/C=C\CCCC(=O)O)[C@@H](O)C[C@H]1O [Dinoprost] | < 0%
CCCNC(C)C(=O)Nc1ccccc1C (stereo not given) [prilocaine hydrochloride] | 30.3%
COc1ccc(CN(CCN(C)C)c2ccccn2)cc1 [Pyrilamine maleate] | 27.2%
Nc1ncn([C@@H]2O[C@H](CO)[C@@H](O)[C@H]2O)c(=O)n1 [5-azacytidine] | < 0%
CC(COc1ccccc1)N(CCCl)Cc1ccccc1 (stereo not given) [Phenoxybenzamine hydrochloride] | 7.63%
Cc1scc2c1N(C(=O)CN1CCN(C)CC1)c1ccccc1NC2=O [Telenzepine dihydrochloride] | 12.2%

Look-ups from above.
motility inhibition on day 3, Cc1nc2ccccc2n1Cc1ccc(Cl)cc1 [chlormidazole] is entered as 66.6%
motility inhibition on day 3, CCCNC(C)C(=O)Nc1ccccc1C (stereo not given) [prilocaine hydrochloride] is entered as 30.3%
motility inhibition on day 3, COC1=C(OC)C(=O)C(CCCCCCCCCCO)=C(C)C1=O [idebenone] is entered as 13.6%
motility inhibition on day 3, CC(C)(C)NC[C@H](O)COc1nsnc1N1CCOCC1 [S(-)-Timolol maleate] is entered as 9.16%

Next entries follow.

SMILES | motility inhibition on day 3
c1ccc(C2CN3CCSC3=N2)cc1 (stereo not given) [tetramizole hydrochloride] | < 0%
C=C1c2cccc(O)c2C(=O)C2=C(O)[C@]3(O)C(=O)C(C(N)=O)=C(O)[C@@H](N(C)C)[C@@H]3[C@@H](O)[C@H]12 [methacycline hydrochloride] | < 0%
CC[C@]1(O)C[C@@H]2CN(CCc3c([nH]c4ccccc34)[C@@](C(=O)OC)(c3cc4c(cc3OC)N(C)[C@H]3[C@@](O)(C(N)=O)[C@H](O)[C@]5(CC)C=CCN6CC[C@]43[C@@H]65)C2)C1 | < 0%
CO[C@@]12[C@H](COC(N)=O)C3=C(C(=O)C(C)=C(N)C3=O)N1C[C@@H]1N[C@@H]12 [mitomycin c] | 10%
CC(C(=O)O)c1ccc(N2Cc3ccccc3C2=O)cc1 (stereo not given) [indoprofen] | 25%
CC1=Nc2ccc(Cl)cc2S(=O)(=O)N1 [Diazoxide] | 11.8%
C=C1/C(=C\C=C2/CCC[C@]3(C)[C@@H]([C@H](C)/C=C/[C@@H](O)C4CC4)CC[C@@H]23)C[C@@H](O)C[C@@H]1O [Calcipotriene] | 0.648%
Cc1ccc(Cl)c(Nc2ccccc2C(=O)O)c1Cl [sodium meclofenamate] | 5.37%
CN(C)CCOc1ccc(/C(=C(/CCCl)c2ccccc2)c2ccccc2)cc1 [toremiphene citrate] | < 0%
CCN1CCN(C(=O)N[C@@H](C(=O)N[C@@H]2C(=O)N3C(C(=O)O)=C(CSc4nnnn4C)CS[C@H]23)c2ccc(O)cc2)C(=O)C1=O [Cefoperazone sodium salt] | 19.3%
C[C@H]1C[C@H]2[C@@H]3CCC4=CC(=O)C=C[C@]4(C)[C@@]3(F)[C@@H](O)C[C@]2(C)[C@@]1(O)C(=O)CO [betamethasone] | 39.8%
Oc1ccc(OCc2ccccc2)cc1 [monobenzone] | 12.6%
CC(C)(Oc1ccc(C(=O)c2ccc(Cl)cc2)cc1)C(=O)O [fenofibric acid] | 7.42%
CCCCNc1ccc(C(=O)OCCOCCOCCOCCOCCOCCOCCOCCOCCOC)cc1 [benzonatate] | 0.878%
CCn1nc(C(=O)O)c(=O)c2cc3c(cc21)OCO3 [cinoxacin] | 0.11%
Cc1cc(/C=C/c2ccc3cc(N(C)C)ccc3[n+]2C)c(C)n1-c1ccccc1 [pyrvinium pamoate] | 95.8%
CC1(C)O[C@@H]2C[C@H]3[C@@H]4CCC5=CC(=O)C=C[C@]5(C)[C@@]4(F)[C@@H](O)C[C@]3(C)[C@]2(C(=O)CO)O1 [triamcinolone acetonide] | < 0%
Cc1cnc(NC(=O)C2=C(O)c3ccccc3S(=O)(=O)N2C)s1 [meloxicam] | < 0%
O=C(O)CCCc1ccccc1 [phenylbutyric acid] | < 0%
O=C(O)COC(=O)Cc1ccccc1Nc1c(Cl)cccc1Cl [aceclofenac] | 23.4%
C[C@@H]1C[C@H]2[C@@H]3CCC4=CC(=O)C=C[C@]4(C)[C@@]3(F)[C@@H](O)C[C@]2(C)[C@@]1(O)C(=O)CO [dexamethasone] | 2.39%
OC1(c2ccc(Cl)c(C(F)(F)F)c2)CCN(CCCC(c2ccc(F)cc2)c2ccc(F)cc2)CC1 [penfluridol] | 16.9%
CCN1CCC[C@H]1CNC(=O)c1c(OC)ccc(Br)c1OC [Remoxipride] | < 0%
COc1cc(NS(C)(=O)=O)ccc1Nc1c2ccccc2nc2ccccc12 [amsacrine] | 8.09%

SMILES | motility inhibition on day 3
CCN1CCN(c2cc3c(cc2F)c(=O)c(C(=O)O)cn3C2CC2)CC1 [enrofloxacin] | 2.46%
O=C1C2CC3CC1CC(O)(C3)C2 [idramantone] | 0.446%
Cc1nnc(NS(=O)(=O)c2ccc(N)cc2)s1 [sulfamethizole] | 22%
CC1CC(OC(=O)C(O)c2ccccc2)CC(C)(C)N1C (stereo not given) [eucatropine hydrochloride] | 54.4%
C1CCN2C[C@@H]3C[C@@H](CN4CCCC[C@@H]34)[C@H]2C1 [sparteine sulfate] | 5.16%
CC1Cc2ccccc2N1NC(=O)c1ccc(Cl)c(S(N)(=O)=O)c1 (stereo not given) [indapamide] | 31.2%
FC(F)(Cl)C(F)(F)Cl [cryoflurane] | < 0%
CCC(=O)c1c(O)cc(O)cc1O [flopropione] | 5.41%
CO/N=C(\C(=O)N[C@@H]1C(=O)N2C(C(=O)O)=C(COC(N)=O)CS[C@H]12)c1ccco1 [cefuroxime sodium] | < 0%
O=C(NCC(O)CO)c1c(I)c(C(=O)NCC(O)CO)c(I)c(N(CCO)C(=O)CO)c1I (stereo not given) [ioversol] | 49.6%
Nc1ccc(S(=O)(=O)Nc2ccnn2-c2ccccc2)cc1 [Sulfaphenazole] | < 0%
CC12CCC(CC1)C(C)(C)O2 [eucalyptol] | 17.1%
CC(=O)Nc1ncc([N+](=O)[O-])s1 [nithiamide] | 13.6%
CCCCCCCCCCCCCCCC(=O)O[C@@H]1[C@@H](O)[C@@H](O)[C@@H]([C@H](NC(=O)[C@@H]2C[C@@H](CCC)CN2C)[C@H](C)Cl)O[C@@H]1SC [clindamycin palmitate hydrochloride] | 4.01%
Cc1cc(CC(=O)O)n(C)c1C(=O)c1ccc(Cl)cc1 [zomepirac sodium] | 7.27%
Nc1ccc2cc3ccc(N)cc3nc2c1 [proflavine hemisulfate] | 88.8%
CC(C)C[C@@H]1NC(=O)[C@H](CCCN)NC(=O)[C@H](C(C)C)NC(=O)[C@H](Cc2ccc(O)cc2)N[C@@H](CCC(=O)O)C(=O)N[C@@H](CC(N)=O)C(=O)[C@@H](Cc2ccccc2)NC(=O)[C@H](Cc2ccccc2)NC(=O)[C@@H]2CCCN2C(=O)[C@@H](Cc2ccccc2)NC1=O [tyrothricin] | 41.9%
CC[C@H]1OC(=O)[C@H](C)[C@@H](O[C@H]2C[C@@](C)(OC)[C@@H](O)[C@H](C)O2)[C@H](C)[C@@H](O[C@@H]2O[C@H](C)C[C@H](N(C)C)[C@H]2O)[C@](C)(O)C[C@@H](C)[C@@H]2N[C@@H](COCCOC)O[C@H]([C@H]2C)[C@]1(C)O [dirithromycin] | 6.81%
O=C1CC2(CCCC2)CC(=O)N1CCCCN1CCN(c2ncccn2)CC1 [Buspirone hydrochloride] | < 0%
O=c1cc[nH]c(=S)[nH]1 [2-thiouracil] | < 0%
CC(=O)OC1CC2CCC1(C)C2(C)C (stereo not given) [bornyl acetate] | < 0%
CC(=O)O[C@]1(C(C)=O)CC[C@H]2[C@@H]3C[C@H](C)C4=CC(=O)CC[C@]4(C)[C@H]3CC[C@@]21C [medroxyprogesterone acetate] | 19.4%
